Test results published in PMC11130202.
No constants are given. Whether binding was seen depends on the method and setting. Some entries that bind do so weakly or less than the wild type.

Biological target: Spa2(1-535) (S. cerevisiae (budding yeast)) (UniProt P23201)
Assay: SPR; Biacore T200, Spa2 variant immobilised on CM5 by amine coupling, the same variant flowed over at 0.15625-20 μM; room temperature; 20 mM HEPES, 50 mM NaCl pH 7.4; bivalent analyte model; for Spa2(1-535) and Spa2(281-535) association between dimers; both purified

binding: binds weakly
Substance: Spa2(1-535) (from UniProt P23201 1-535) (domain or fragment)
